Reference: patent US20240029819A1, “AGENTS BINDING MODIFIED ANTIGEN PRESENTED PEPTIDES AND USE OF SAME” (Yeda Research and Development Co. Ltd., priority 2020, published 2024)
These are yes or no findings as the source states them, for the method shown. Binding can be weak; no strength is given.

Each binder was assayed against HLA-A0201 (recombinant MHC allele, ProImmune REVEAL binding assay) (human) (assay: ProImmune REVEAL in-vitro MHC-peptide binding assay).

binding, binds:
TLIESKLPV [… (SEQ ID NO: 10823), unmodified form]
TLIESKLPV (methylated lysine at position 6, K(me)) [TLIESK(me)LPV (SEQ ID NO: 10823 having the recited modification)]
KVMDEVAGI […, unmodified form of SEQ ID NO: 9194]
KVMDEVAGI (methylated lysine at position 1, K(me)) [K(me)VMDEVAGI (SEQ ID NO: 9194 having the recited modification)]
TLNSLIYTL […, unmodified form of SEQ ID NO: 10824]
